The match of structure and compound is tentative.
What was measured:
[1] = target: ROS1-G2032R (Homo sapiens, UniProt P08922, G2032R); experiment: Biochemical kinase assay, ROS1-G2032R kinase domain; settings: read-out: ROS1-G2032R Ki^app; apparent inhibitory constant, Morrison equation; ATP 2 mM in substrate solution
[2] = target: Ba/F3 cells CD74-ROS1 wild-type (wt) (Homo sapiens, UniProt P08922); experiment: Ba/F3 cell proliferation assay, CD74-ROS1 wild-type; type: cell-based; settings: read-out: CD74-ROS1-wt IC50, 72 hours, CellTiter-Glo
[3] = target: ALK-wt (Homo sapiens, UniProt Q9UM73); experiment: Biochemical kinase assay, ALK-wt kinase domain; settings: read-out: ALK-wt Ki^app; apparent inhibitory constant, Morrison equation; ATP 2 mM in substrate solution
[4] = target: ALK L1196M/G1202R (Homo sapiens, UniProt Q9UM73, G1202R/L1196M); experiment: Biochemical kinase assay, ALK L1196M/G1202R kinase domain; settings: read-out: ALK-L1196M-G1202R Ki^app; apparent inhibitory constant, Morrison equation; ATP 2 mM in substrate solution
[5] = target: Ba/F3 cells CD74-ROS1 G2032R (Homo sapiens, UniProt P08922, G2032R); experiment: Ba/F3 cell proliferation assay, CD74-ROS1 G2032R; type: cell-based; settings: read-out: CD74-ROS1-G2032R IC50, 72 hours, CellTiter-Glo
[6] = target: Ba/F3 cells EML4-ALK wt (variant 1) (Homo sapiens, UniProt Q9UM73); experiment: Ba/F3 cell proliferation assay, EML4-ALK wt (variant 1); settings: read-out: EML4-ALK-wt IC50, 72 hours, CellTiter-Glo
[7] = target: TRKA-wt (Homo sapiens, UniProt P04629); experiment: Biochemical kinase assay, TRKA-wt kinase domain; settings: read-out: TRKA-wt Ki^app; apparent inhibitory constant, Morrison equation; ATP 2 mM in substrate solution
[8] = target: ROS1-wt (Homo sapiens, UniProt P08922); experiment: Biochemical kinase assay, ROS1-wt kinase domain; settings: read-out: ROS1-wt Ki^app; apparent inhibitory constant, Morrison equation; ATP 2 mM in substrate solution
[9] = tested on: TPM3-NTRK1-wt IC50 / primary target IC50 (e.g. CD74-ROS1-wt); experiment: TRKA selectivity in Ba/F3 cells (TRKA potency divided by primary target potency)
[10] = target: Ba/F3 cells EML4-ALK L1196M/G1202R (variant 1) (Homo sapiens, UniProt Q9UM73, G1202R/L1196M); experiment: Ba/F3 cell proliferation assay, EML4-ALK L1196M/G1202R (variant 1); settings: read-out: EML4-ALK-L1196M-G1202R IC50, 72 hours, CellTiter-Glo
[11] = target: Ba/F3 cells TPM3-TRKA (Homo sapiens, UniProt P04629); experiment: Ba/F3 cell proliferation assay, TPM3-TRKA; settings: read-out: TPM3-NTRK1-wt IC50, 72 hours, CellTiter-Glo

By UniProt entry, the sequences of proteins in these tests, tags left out. Where a name states a change or a piece, a line headed by the entry shows the natural chain unless it says otherwise. Chains listed by the source or under a name are the forms on record and can include a tag or linker. Residues count along the entry.
UniProt P08922, 1883-2347 limits assumed: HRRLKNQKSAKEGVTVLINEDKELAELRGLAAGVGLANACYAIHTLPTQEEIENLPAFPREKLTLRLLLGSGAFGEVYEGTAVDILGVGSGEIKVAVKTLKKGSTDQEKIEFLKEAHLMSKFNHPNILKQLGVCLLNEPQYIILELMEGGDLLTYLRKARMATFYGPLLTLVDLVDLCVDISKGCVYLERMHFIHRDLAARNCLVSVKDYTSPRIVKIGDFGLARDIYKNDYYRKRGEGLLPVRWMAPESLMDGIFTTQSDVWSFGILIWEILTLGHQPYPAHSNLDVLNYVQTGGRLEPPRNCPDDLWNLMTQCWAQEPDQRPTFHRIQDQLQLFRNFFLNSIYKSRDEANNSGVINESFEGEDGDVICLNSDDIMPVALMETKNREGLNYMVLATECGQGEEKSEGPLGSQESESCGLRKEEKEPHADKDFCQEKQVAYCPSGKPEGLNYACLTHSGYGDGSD
UniProt P08922, 1945-2222 limits assumed: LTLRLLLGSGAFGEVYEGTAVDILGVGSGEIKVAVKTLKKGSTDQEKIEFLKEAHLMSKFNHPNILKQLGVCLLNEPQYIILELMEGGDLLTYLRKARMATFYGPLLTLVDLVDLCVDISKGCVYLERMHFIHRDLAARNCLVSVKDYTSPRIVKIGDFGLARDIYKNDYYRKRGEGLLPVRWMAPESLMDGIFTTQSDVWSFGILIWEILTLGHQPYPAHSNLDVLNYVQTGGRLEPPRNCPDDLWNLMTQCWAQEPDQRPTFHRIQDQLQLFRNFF
UniProt P08922, 1883-2347 G2032R limits assumed: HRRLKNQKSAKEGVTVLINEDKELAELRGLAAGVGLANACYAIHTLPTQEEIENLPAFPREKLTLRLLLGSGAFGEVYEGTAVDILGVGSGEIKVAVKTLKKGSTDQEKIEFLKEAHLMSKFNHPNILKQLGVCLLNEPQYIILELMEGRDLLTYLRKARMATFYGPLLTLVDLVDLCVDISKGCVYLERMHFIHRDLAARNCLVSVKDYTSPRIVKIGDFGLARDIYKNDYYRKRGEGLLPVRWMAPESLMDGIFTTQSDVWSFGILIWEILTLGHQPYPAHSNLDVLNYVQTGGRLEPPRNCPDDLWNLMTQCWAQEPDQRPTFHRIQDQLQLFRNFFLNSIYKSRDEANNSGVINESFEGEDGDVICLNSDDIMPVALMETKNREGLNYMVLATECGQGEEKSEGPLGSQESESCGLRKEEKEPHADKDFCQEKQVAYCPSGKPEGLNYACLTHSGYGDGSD
UniProt P08922, 1945-2222 G2032R limits assumed: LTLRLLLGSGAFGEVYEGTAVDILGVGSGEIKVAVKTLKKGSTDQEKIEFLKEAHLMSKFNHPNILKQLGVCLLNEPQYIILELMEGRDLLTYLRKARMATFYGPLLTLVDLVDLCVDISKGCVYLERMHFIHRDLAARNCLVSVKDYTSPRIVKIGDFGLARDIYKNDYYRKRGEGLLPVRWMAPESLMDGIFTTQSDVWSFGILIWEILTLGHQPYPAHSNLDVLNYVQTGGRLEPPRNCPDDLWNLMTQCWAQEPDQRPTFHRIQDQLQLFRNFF
UniProt Q9UM73, 1116-1392 limits assumed: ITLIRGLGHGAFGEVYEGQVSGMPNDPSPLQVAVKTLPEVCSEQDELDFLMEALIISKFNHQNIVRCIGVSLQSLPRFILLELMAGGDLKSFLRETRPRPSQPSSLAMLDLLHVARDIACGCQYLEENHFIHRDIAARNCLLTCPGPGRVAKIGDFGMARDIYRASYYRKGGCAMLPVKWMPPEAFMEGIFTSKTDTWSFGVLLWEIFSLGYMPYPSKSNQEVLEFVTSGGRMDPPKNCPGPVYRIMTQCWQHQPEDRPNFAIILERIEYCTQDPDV
UniProt Q9UM73, 1116-1392 L1196M/G1202R limits assumed: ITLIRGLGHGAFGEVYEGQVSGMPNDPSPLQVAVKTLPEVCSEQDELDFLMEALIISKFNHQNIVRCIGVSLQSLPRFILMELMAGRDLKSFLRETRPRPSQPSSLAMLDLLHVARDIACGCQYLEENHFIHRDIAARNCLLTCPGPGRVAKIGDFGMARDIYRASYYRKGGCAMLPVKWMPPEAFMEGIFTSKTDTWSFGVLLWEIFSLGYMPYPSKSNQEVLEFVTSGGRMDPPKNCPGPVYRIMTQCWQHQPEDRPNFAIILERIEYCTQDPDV
UniProt Q9UM73, with tags, fused parts or gaps limits assumed: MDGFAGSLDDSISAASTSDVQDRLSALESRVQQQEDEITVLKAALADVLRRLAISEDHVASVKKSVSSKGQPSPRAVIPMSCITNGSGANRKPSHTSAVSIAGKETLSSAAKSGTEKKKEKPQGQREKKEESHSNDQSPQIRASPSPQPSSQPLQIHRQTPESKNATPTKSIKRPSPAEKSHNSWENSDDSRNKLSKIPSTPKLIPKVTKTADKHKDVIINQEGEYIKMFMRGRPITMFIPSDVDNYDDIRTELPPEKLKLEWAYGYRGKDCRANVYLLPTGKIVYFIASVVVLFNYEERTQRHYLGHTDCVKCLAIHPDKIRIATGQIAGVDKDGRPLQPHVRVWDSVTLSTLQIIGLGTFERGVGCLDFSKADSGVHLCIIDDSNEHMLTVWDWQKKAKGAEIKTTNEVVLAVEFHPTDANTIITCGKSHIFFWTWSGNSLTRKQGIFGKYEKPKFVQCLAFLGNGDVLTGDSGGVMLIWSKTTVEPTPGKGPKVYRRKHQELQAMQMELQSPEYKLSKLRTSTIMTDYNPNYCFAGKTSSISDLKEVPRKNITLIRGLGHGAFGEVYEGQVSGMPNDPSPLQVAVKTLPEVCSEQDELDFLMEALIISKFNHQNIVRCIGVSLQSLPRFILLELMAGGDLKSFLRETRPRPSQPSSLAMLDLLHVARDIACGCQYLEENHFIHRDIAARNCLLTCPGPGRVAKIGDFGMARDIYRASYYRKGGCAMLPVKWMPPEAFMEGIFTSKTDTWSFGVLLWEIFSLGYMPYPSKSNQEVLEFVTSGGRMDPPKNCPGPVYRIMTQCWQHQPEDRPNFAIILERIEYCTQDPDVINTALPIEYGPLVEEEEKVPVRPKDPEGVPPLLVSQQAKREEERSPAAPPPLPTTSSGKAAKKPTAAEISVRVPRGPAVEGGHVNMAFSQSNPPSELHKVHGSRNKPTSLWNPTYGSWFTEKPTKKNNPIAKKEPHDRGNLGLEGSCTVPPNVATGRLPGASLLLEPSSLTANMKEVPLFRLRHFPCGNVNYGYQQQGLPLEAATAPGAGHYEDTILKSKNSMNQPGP
UniProt Q9UM73, with tags, fused parts or gaps G1202R/L1196M limits assumed: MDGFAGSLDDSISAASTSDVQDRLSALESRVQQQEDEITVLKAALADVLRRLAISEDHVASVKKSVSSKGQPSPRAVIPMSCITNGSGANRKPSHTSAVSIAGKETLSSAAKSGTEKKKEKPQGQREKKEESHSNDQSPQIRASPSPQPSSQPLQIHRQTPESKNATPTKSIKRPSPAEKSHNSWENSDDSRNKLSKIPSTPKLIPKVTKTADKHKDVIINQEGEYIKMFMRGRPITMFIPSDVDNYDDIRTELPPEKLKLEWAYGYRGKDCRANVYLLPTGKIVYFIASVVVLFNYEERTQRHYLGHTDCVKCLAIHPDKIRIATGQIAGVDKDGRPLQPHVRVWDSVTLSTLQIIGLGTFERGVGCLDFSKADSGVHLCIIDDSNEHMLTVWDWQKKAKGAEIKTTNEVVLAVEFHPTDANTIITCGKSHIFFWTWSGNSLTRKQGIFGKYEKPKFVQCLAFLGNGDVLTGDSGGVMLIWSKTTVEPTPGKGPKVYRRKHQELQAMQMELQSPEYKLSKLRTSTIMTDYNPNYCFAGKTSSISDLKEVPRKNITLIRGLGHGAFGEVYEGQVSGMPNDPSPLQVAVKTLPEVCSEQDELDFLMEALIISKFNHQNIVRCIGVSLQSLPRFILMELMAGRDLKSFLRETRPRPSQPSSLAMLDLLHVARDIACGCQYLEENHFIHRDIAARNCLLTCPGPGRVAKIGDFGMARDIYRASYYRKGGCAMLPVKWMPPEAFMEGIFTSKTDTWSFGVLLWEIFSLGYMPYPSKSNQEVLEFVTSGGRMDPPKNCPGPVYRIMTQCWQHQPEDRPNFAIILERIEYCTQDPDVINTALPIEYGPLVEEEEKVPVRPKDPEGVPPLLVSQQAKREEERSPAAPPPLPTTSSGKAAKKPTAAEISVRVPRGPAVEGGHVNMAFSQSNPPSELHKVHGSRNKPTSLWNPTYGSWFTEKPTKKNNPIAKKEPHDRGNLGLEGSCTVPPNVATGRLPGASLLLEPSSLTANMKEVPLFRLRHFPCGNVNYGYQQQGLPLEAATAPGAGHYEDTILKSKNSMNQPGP
UniProt P04629, 510-781 limits assumed: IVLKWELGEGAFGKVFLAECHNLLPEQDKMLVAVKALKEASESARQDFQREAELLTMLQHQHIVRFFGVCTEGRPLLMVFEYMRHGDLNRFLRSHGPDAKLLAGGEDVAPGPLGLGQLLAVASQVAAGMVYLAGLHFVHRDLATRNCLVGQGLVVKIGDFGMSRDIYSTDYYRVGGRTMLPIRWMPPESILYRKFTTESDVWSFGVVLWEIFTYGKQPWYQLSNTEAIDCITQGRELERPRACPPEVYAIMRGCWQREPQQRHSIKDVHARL
UniProt P04629, 510-796 limits assumed: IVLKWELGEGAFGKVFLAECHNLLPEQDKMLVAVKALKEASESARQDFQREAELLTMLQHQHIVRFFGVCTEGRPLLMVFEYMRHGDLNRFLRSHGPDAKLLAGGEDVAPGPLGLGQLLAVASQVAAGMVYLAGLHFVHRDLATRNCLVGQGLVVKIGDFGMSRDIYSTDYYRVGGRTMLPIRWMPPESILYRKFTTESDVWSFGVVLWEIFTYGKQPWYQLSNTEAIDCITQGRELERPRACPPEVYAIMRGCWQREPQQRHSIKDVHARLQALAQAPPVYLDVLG

Cc1nn(CC2CC2)c2c1Cc1nn(C)nc1-c1ccc(F)cc1[C@@H](C)Oc1nc-2cnc1N
Ki [1]: < 50 nM
IC50 [2]: 0.1 to 50 nM
Ki [3]: < 50 nM
Ki [4]: < 50 nM
IC50 [5]: 0.1 to 50 nM
IC50 [6]: 0.1 to 50 nM
Ki [7]: > 500 nM
Ki [8]: < 50 nM
TPM3-NTRK1-wt/CD74-ROS1-G2032R selectivity ratio ([9]; TRKA potency / CD74-ROS1-G2032R potency): A (bin A for very high selectivity, ratio >30-fold)
TPM3-NTRK1-wt/CD74-ROS1-wt selectivity ratio ([9]; TRKA potency / CD74-ROS1-wt potency): A (bin A for very high selectivity, ratio >30-fold)
TPM3-NTRK1-wt/EML4-ALK-L1196M-G1202R selectivity ratio ([9]; TRKA potency / EML4-ALK-L1196M-G1202R potency): A (bin A for very high selectivity, ratio >30-fold)
TPM3-NTRK1-wt/EML4-ALK-wt selectivity ratio ([9]; TRKA potency / EML4-ALK-wt potency): A (bin A for very high selectivity, ratio >30-fold)
IC50 [10]: 0.1 to 50 nM
IC50 [11]: > 500 nM
